The source of these data is article doi:10.1101/2022.04.01.486681.

Chains of the proteins cited; added tags and fusions are not shown. Lines headed by an entry give the natural chain unless they say otherwise; changes in a name come on top.
UniProt Q4F883: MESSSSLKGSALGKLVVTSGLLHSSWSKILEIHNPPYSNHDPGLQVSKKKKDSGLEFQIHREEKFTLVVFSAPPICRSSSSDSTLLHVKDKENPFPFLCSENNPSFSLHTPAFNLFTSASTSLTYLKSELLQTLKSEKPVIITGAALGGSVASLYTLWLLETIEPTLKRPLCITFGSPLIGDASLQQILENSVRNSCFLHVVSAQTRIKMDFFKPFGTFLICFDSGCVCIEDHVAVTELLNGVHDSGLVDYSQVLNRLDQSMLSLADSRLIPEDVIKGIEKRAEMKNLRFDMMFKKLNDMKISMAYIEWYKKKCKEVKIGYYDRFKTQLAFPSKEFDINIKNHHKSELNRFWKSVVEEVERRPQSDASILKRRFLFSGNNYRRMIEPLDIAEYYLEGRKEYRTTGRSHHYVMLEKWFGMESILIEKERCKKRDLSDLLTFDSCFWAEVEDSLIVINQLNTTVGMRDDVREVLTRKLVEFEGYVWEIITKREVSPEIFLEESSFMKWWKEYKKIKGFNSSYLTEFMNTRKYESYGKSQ

In this assay the target is SAG101 (Senescence-Associated Gene 101) (Arabidopsis) (UniProt Q4F883). Description: co-purification.

These are yes or no findings as the source states them, for the method shown. In cells and extracts the contact can be indirect. Binding can be weak; no strength is given.

B1: EDS1 (Enhanced Disease Susceptibility 1) (protein, UniProt Q9XF23 1-623)
chain: MAFEALTGINGDLITRSWSASKQAYLTERYHKEEAGAVVIFAFQPSFSEKDFFDPDNKSSFGEIKLNRVQFPCMRKIGKGDVATVNEAFLKNLEAVIDPRTSFQASVEMAVRSRKQIVFTGHSSGGATAILATVWYLEKYFIRNPNVYLEPRCVTFGAPLVGDSIFSHALGREKWSRFFVNFVTRFDIVPRITLARKASVEETLPHVLAQLDPRNSSVQESEQRITEFYTSVMRDTSTVANQAVCELTGSAEAILETLSSFLELSPYRPAGTFVFSTEKRLVAVNNSDAILQMLFYTCQASDEQEWSLIPFRSIRDHHSYEELVQSMGMKLFNHLDGENSIESSLNDLGVSTRGRQYVQAALEEEKKRVENQKKIIQVIQQERFLKKLAWIEDEYKPKCQAHKNGYYDSFKVSNEENDFKANVKRAELAGVFDEVLGLLKKCQLPDEFEGDIDWIKLATRYRRLVEPLDIANYHRHLKNEDTGPYMKRGRPTRYIYAQRGYEHHILKPNGMIAEDVFWNKVNGLNLGLQLEEIQETLKNSGSECGSCFWAEVEELKGKPYEEVEVRVKTLEGMLREWITAGEVDEKEIFLEGSTFRKWWITLPKNHKSHSPLRDYMMDEITDT
As to B1, the binding result was “binds”.
